# Experimental data published in publication PMC8384837.
# Residue numbers refer to the chain shown, from its start. This is one part of the list. For some of these results: At the low end of the ranking, values are background and their order means little. For some of these results: Construct or isoform of the protein are uncertain.
# Experiments:
# Conditions in all cases: yeast three-hybrid, YBZ-1, SC-Leu-His + 0.5 mM 3-AT, 4 days
# [1] = biological target: T1, PUM1 PUF domain R1-QFR R2-VFQ R7-NPG S863Q + R864F + Q867R + N899V + Y900F + S1079N + N1080P + E1083G (UniProt Q14671)
# T1 sequence: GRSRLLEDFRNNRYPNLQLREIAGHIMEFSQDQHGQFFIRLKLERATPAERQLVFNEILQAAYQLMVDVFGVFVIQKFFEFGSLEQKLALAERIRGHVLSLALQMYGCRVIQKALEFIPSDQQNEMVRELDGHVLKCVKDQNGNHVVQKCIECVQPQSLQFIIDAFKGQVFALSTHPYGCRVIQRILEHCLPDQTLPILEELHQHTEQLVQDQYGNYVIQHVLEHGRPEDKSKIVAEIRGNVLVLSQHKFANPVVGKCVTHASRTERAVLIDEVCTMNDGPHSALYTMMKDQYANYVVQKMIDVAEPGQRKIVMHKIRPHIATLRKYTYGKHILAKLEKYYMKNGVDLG
# [2] = biological target: T2, PUM1 PUF domain R2-VFQ R3-THE R4-TFR N899V + Y900F + C935T + R936H + Q939E + N971T + H972F + Q975R (UniProt Q14671)
# T2 sequence: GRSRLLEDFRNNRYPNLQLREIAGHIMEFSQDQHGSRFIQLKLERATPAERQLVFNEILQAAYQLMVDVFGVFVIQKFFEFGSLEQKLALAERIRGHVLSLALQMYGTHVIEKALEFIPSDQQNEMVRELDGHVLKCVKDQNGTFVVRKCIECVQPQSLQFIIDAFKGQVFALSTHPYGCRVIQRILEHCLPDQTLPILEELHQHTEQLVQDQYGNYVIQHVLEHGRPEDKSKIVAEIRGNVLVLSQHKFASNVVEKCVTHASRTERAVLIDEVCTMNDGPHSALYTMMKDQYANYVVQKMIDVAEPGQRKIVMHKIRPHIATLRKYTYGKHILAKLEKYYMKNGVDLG
# [3] = biological target: T3, PUM1 PUF domain R3-THE R4-TFR C935T + R936H + Q939E + N971T + H972F + Q975R (UniProt Q14671)
# T3 sequence: T2 sequence with V72N, F73Y
# [4] = biological target: T4, PUM1 PUF domain R3-THE R4-TFR R7-NPG C935T + R936H + Q939E + N971T + H972F + Q975R + S1079N + N1080P + E1083G (Homo sapiens) (UniProt Q14671)
# T4 sequence: T2 sequence with V72N, F73Y, S252N, N253P, E256G
# [5] = biological target: T5, PUM1 PUF domain R5-PHQ R6-SWD C1007P + R1008H + N1043S + Y1044W + Q1047D (UniProt Q14671)
# T5 sequence: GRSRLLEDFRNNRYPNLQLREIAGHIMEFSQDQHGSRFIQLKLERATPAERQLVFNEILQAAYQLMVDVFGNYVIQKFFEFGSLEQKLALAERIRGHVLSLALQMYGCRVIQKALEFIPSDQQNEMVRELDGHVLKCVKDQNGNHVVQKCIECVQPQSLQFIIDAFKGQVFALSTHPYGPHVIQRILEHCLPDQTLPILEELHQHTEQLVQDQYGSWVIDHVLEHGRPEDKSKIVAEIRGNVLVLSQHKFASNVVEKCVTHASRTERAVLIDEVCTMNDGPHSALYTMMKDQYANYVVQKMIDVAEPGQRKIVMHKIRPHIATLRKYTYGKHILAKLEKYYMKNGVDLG
# [6] = biological target: T6, PUM1 PUF domain R2-VFQ R3-THE R4-TFR R6-SWD R7-NPG N899V + Y900F + C935T + R936H + Q939E + N971T + H972F + Q975R + N1043S + Y1044W + Q1047D + S1079N + N1080P + E1083G (Homo sapiens) (UniProt Q14671)
# T6 sequence: T2 sequence with N216S, Y217W, Q220D, S252N, N253P, E256G
# [7] = biological target: T7, PUM1 PUF domain R3-THE R4-TFR R7-NPG C935T + R936H + Q939E + N971T + H972F + Q975R + S1079N + N1080P + E1083G (UniProt Q14671)
# T7 sequence: T2 sequence with V72N, F73Y, S252N, N253P, E256G
Sequence,binding signal (log2 enrichment (interaction score)) [1],binding signal (log2 enrichment (interaction score)) [2],binding signal (log2 enrichment (interaction score)) [3],binding signal (log2 enrichment (interaction score)) [4],binding signal (log2 enrichment (interaction score)) [5],binding signal (log2 enrichment (interaction score)) [6],binding signal (log2 enrichment (interaction score)) [7]
GGCUAGAACUAGUGGAUCCCCCGGCGCCCGGCGGCUCGAGCCCGGGUAAGGGUACGAAGUCUGCAUGCCGCCGGGCGCCAUGCCUGCAGGUCGACUCUAGAAAACAUG,-3.52,-4.42,< -6.29,–,–,–,–
GGCUAGAACUAGUGGAUCCCCCGGCGCCCGGCGGCUCGAGCCCGGGUAAGAUUAAGGUGUCUGCAUGCCGCCGGGCGCCAUGCCUGCAGGUCGACUCUAGAAAACAUG,-5.24,-5.54,-6.27,–,–,–,–
GGCUAGAACUAGUGGAUCCCCCGGCGCCCGGCGGCUCGAGCCCGGGUAAGUUGAAGAAGUCUGCAUGCCGCCGGGCGCCAUGCCUGCAGGUCGACUCUAGAAAACAUG,-5.92,-5.49,-7.77,-1.34,-9.51,–,–
GGCUAGAACUAGUGGAUCCCCCGGCGCCCGGCGGCUCGAGCCCGGGUAAGUGUGCGAAGUCUGCAUGCCGCCGGGCGCCAUGCCUGCAGGUCGACUCUAGAAAACAUG,-6.49,-4.12,-6.88,–,–,–,–
GGCUAGAACUAGUGGAUCCCCCGGCGCCCGGCGGCUCGAGCCCGGGUAAGUUGACGAAGUCUGCAUGCCGCCGGGCGCCAUGCCUGCAGGUCGACUCUAGAAAACAUG,-5.72,-4.92,-6.93,–,-8,3.74,-2.25
GGCUAGAACUAGUGGAUCCCCCGGCGCCCGGCGGCUCGAGCCCGGGUAAGUGGACUGAGUCUGCAUGCCGCCGGGCGCCAUGCCUGCAGGUCGACUCUAGAAAACAUG,-4.32,-5.85,-7.05,< -1.81,-7.01,–,–
GGCUAGAACUAGUGGAUCCCCCGGCGCCCGGCGGCUCGAGCCCGGGUAAGUUUAGAAAGUCUGCAUGCCGCCGGGCGCCAUGCCUGCAGGUCGACUCUAGAAAACAUG,-6.33,-5.74,-7.55,–,–,–,–
GGCUAGAACUAGUGGAUCCCCCGGCGCCCGGCGGCUCGAGCCCGGGUAAGUAGAAGAAGUCUGCAUGCCGCCGGGCGCCAUGCCUGCAGGUCGACUCUAGAAAACAUG,-4.73,-5.22,-6.66,-0.93,-8.64,–,–
GGCUAGAACUAGUGGAUCCCCCGGCGCCCGGCGGCUCGAGCCCGGGUAAGUUGACGAUGUCUGCAUGCCGCCGGGCGCCAUGCCUGCAGGUCGACUCUAGAAAACAUG,-5,-5.8,< -7.72,–,–,–,–
GGCUAGAACUAGUGGAUCCCCCGGCGCCCGGCGGCUCGAGCCCGGGUAAGUUUACGUGGUCUGCAUGCCGCCGGGCGCCAUGCCUGCAGGUCGACUCUAGAAAACAUG,-5.82,-5.49,-6.63,–,–,–,–
GGCUAGAACUAGUGGAUCCCCCGGCGCCCGGCGGCUCGAGCCCGGGUAAGAUGUCUUAGUCUGCAUGCCGCCGGGCGCCAUGCCUGCAGGUCGACUCUAGAAAACAUG,-6.39,-5.62,-7.89,-1.74,–,–,–
GGCUAGAACUAGUGGAUCCCCCGGCGCCCGGCGGCUCGAGCCCGGGUAAGUGUGUCCAGUCUGCAUGCCGCCGGGCGCCAUGCCUGCAGGUCGACUCUAGAAAACAUG,-5.44,-5.19,-6.66,–,–,–,–

# A different layout for some results above:
Sequence | binding signal (log2 enrichment (interaction score)) [1] | binding signal (log2 enrichment (interaction score)) [2] | binding signal (log2 enrichment (interaction score)) [3] | binding signal (log2 enrichment (interaction score)) [4] | binding signal (log2 enrichment (interaction score)) [5] | binding signal (log2 enrichment (interaction score)) [6] | binding signal (log2 enrichment (interaction score)) [7]
GGCUAGAACUAGUGGAUCCCCCGGCGCCCGGCGGCUCGAGCCCGGGUAAGAUGUCUUAGUCUGCAUGCCGCCGGGCGCCAUGCCUGCAGGUCGACUCUAGAAAACAUG | -6.39 | -5.62 | -7.89 | -1.74 | – | – | –
GGCUAGAACUAGUGGAUCCCCCGGCGCCCGGCGGCUCGAGCCCGGGUAAGUGUGUCCAGUCUGCAUGCCGCCGGGCGCCAUGCCUGCAGGUCGACUCUAGAAAACAUG | -5.44 | -5.19 | -6.66 | – | – | – | –
